Laboratory results from EP0117034B1, “GRF analogs” (THE SALK INSTITUTE FOR BIOLOGICAL STUDIES, priority 1983, dated 1984).
At least one peptide structure holds a part that was inferred or is arguable (an end, a ring closure or a residue). Square brackets hold non-standard residues; d marks the D form. Ends that are not written are not given here. Peptide text beside a SMILES is read from it. Nle = CCCC[C@H](N)C(=O)O

System: cells of rat pituitary glands
Assay: In vitro release of growth hormone from cultured rat pituitary cells, ir GH measured by radioimmunoassay
Type: cell-based
Conditions: for potency relative to the named corresponding analog: result in words, further testing, comparison of C-terminal form and chain length; for maximum effective concentration: GH release into culture medium, incubation 3 to 4 hours

| Compound | potency relative to the named corresponding analog | maximum effective concentration [nM] |
| --- | --- | --- |
| CCCC[C@H](NC(=O)[C@@H](NC(=O)[C@H](CC(=O)O)NC(=O)[C@H](CCC(N)=O)NC(=O)[C@H](CC(C)C)NC(=O)[C@H](CC(C)C)NC(=O)[C@H](CCCCN)NC(=O)[C@H](CCCNC(=N)N)NC(=O)[C@H](C)NC(=O)[C@H](CO)NC(=O)[C@H](CC(C)C)NC(=O)[C@H](CCC(N)=O)NC(=O)CNC(=O)[C@H](CC(C)C)NC(=O)[C@@H](NC(=O)[C@H](CCCCN)NC(=O)[C@H](CCCNC(=N)N)NC(=O)[C@H](Cc1ccc(O)cc1)NC(=O)[C@H](CO)NC(=O)[C@H](CC(N)=O)NC(=O)[C@@H](NC(=O)[C@H](Cc1ccccc1)NC(=O)[C@@H](NC(=O)[C@H](C)NC(=O)[C@H](CC(=O)O)NC(=O)[C@H](C)NC(=O)[C@H](N)Cc1ccc(O)cc1)[C@@H](C)CC)[C@@H](C)O)C(C)C)[C@@H](C)CC)C(=O)N[C@@H](CO)C(=O)N[C@@H](CCCNC(=N)N)C(=O)N[C@@H](CCC(N)=O)C(=O)N[C@@H](CCC(N)=O)C(=O)NCC(=O)N[C@@H](CCC(=O)O)C(=O)N[C@@H](CO)C(=O)N[C@@H](CC(N)=O)C(=O)N[C@@H](CCC(N)=O)C(=O)N[C@@H](CCC(=O)O)C(=O)N[C@@H](CCCNC(=N)N)C(=O)NCC(=O)N[C@@H](C)C(=O)O [[D-Tyr', Nle27]-hpGRF(1-40)-OH] | equipotent | – |
| CCCC[C@H](NC(=O)[C@@H](NC(=O)[C@H](CC(=O)O)NC(=O)[C@H](CCC(N)=O)NC(=O)[C@H](CC(C)C)NC(=O)[C@H](CC(C)C)NC(=O)[C@H](CCCCN)NC(=O)[C@H](CCCNC(=N)N)NC(=O)[C@H](C)NC(=O)[C@H](CO)NC(=O)[C@H](CC(C)C)NC(=O)[C@H](CCC(N)=O)NC(=O)CNC(=O)[C@H](CC(C)C)NC(=O)[C@@H](NC(=O)[C@H](CCCCN)NC(=O)[C@H](CCCNC(=N)N)NC(=O)[C@H](Cc1ccc(O)cc1)NC(=O)[C@H](CO)NC(=O)[C@H](CC(N)=O)NC(=O)[C@@H](NC(=O)[C@H](Cc1ccccc1)NC(=O)[C@@H](NC(=O)[C@H](C)NC(=O)[C@H](CC(=O)O)NC(=O)[C@H](C)NC(=O)[C@H](N)Cc1ccc(O)cc1)[C@@H](C)CC)[C@@H](C)O)C(C)C)[C@@H](C)CC)C(=O)N[C@@H](CO)C(=O)N[C@@H](CCCNC(=N)N)C(=O)N[C@@H](CCC(N)=O)C(=O)N[C@@H](CCC(N)=O)C(=O)NCC(=O)N[C@@H](CCC(=O)O)C(=O)N[C@@H](CO)C(=O)N[C@@H](CC(N)=O)C(=O)N[C@@H](CCC(N)=O)C(=O)N[C@@H](CCC(=O)O)C(=O)N[C@@H](CCCNC(=N)N)C(=O)NCC(=O)N[C@@H](C)C(=O)N[C@@H](CCCNC(=N)N)C(=O)N[C@@H](C)C(=O)N[C@@H](CCCNC(=N)N)C(=O)N[C@@H](CC(C)C)C(=O)O [[D-Tyr', Nle^27]-hpGRF(1-44)-OH] | equipotent | – |
| CCCC[C@H](NC(=O)[C@@H](NC(=O)[C@H](CC(=O)O)NC(=O)[C@H](CCC(N)=O)NC(=O)[C@H](CC(C)C)NC(=O)[C@H](CC(C)C)NC(=O)[C@H](CCCCN)NC(=O)[C@H](CCCNC(=N)N)NC(=O)[C@H](C)NC(=O)[C@H](CO)NC(=O)[C@H](CC(C)C)NC(=O)[C@H](CCC(N)=O)NC(=O)CNC(=O)[C@H](CC(C)C)NC(=O)[C@@H](NC(=O)[C@H](CCCCN)NC(=O)[C@H](CCCNC(=N)N)NC(=O)[C@H](Cc1ccc(O)cc1)NC(=O)[C@H](CO)NC(=O)[C@H](CC(N)=O)NC(=O)[C@@H](NC(=O)[C@H](Cc1ccccc1)NC(=O)[C@@H](NC(=O)[C@H](C)NC(=O)[C@H](CC(=O)O)NC(=O)[C@H](C)NC(=O)[C@H](N)Cc1ccc(O)cc1)[C@@H](C)CC)[C@@H](C)O)C(C)C)[C@@H](C)CC)C(=O)N[C@@H](CO)C(=O)N[C@@H](CCCNC(=N)N)C(=O)N[C@@H](CCC(N)=O)C(=O)N[C@@H](CCC(N)=O)C(=O)NCC(N)=O [[D-Tyr', Nle^27]-hpGRF(1―32)-NH2] (H-[dY]ADAIFTNSYRKVLGQLSARKLLQDI[Nle]SRQQG-NH2) | more potent than [D-Tyr', Nle27]-hpGRF(1-32)-OH | – |
| CCCC[C@H](NC(=O)[C@@H](NC(=O)[C@H](CC(=O)O)NC(=O)[C@H](CCC(N)=O)NC(=O)[C@H](CC(C)C)NC(=O)[C@H](CC(C)C)NC(=O)[C@H](CCCCN)NC(=O)[C@H](CCCNC(=N)N)NC(=O)[C@H](C)NC(=O)[C@H](CO)NC(=O)[C@H](CC(C)C)NC(=O)[C@H](CCC(N)=O)NC(=O)CNC(=O)[C@H](CC(C)C)NC(=O)[C@@H](NC(=O)[C@H](CCCCN)NC(=O)[C@H](CCCNC(=N)N)NC(=O)[C@H](Cc1ccc(O)cc1)NC(=O)[C@H](CO)NC(=O)[C@H](CC(N)=O)NC(=O)[C@@H](NC(=O)[C@H](Cc1ccccc1)NC(=O)[C@@H](NC(=O)[C@H](C)NC(=O)[C@H](CC(=O)O)NC(=O)[C@H](C)NC(=O)[C@@H](N)Cc1ccc(O)cc1)[C@@H](C)CC)[C@@H](C)O)C(C)C)[C@@H](C)CC)C(=O)N[C@@H](CO)C(=O)N[C@@H](CCCNC(=N)N)C(=O)N[C@@H](CCC(N)=O)C(=O)N[C@@H](CCC(N)=O)C(=O)NCC(N)=O [[Nle^27]-hpGRF(1-32)-NH2, [Nle27]-hpGRF(1-32)-NH2] (H-YADAIFTNSYRKVLGQLSARKLLQDI[Nle]SRQQG-NH2) | about the same potency as [Nle^27]-hpGRF(1―44.)-NH2 | – |
| CC[C@H](C)[C@H](NC(=O)[C@H](C)NC(=O)[C@H](CC(=O)O)NC(=O)[C@H](C)NC(=O)[C@@H](N)Cc1ccc(O)cc1)C(=O)N[C@@H](Cc1ccccc1)C(=O)N[C@H](C(=O)N[C@@H](CC(N)=O)C(=O)N[C@@H](CO)C(=O)N[C@@H](Cc1ccc(O)cc1)C(=O)N[C@@H](CCCNC(=N)N)C(=O)N[C@@H](CCCCN)C(=O)N[C@H](C(=O)N[C@@H](CC(C)C)C(=O)NCC(=O)N[C@@H](CCC(N)=O)C(=O)N[C@@H](CC(C)C)C(=O)N[C@@H](CO)C(=O)N[C@@H](C)C(=O)N[C@@H](CCCNC(=N)N)C(=O)N[C@@H](CCCCN)C(=O)N[C@@H](CC(C)C)C(=O)N[C@@H](CC(C)C)C(=O)N[C@@H](CCC(N)=O)C(=O)N[C@@H](CC(=O)O)C(=O)N[C@H](C(=O)N[C@@H](CCSC)C(=O)N[C@@H](CO)C(=O)N[C@@H](CCCNC(=N)N)C(=O)N[C@@H](CCC(N)=O)C(=O)N[C@@H](CCC(N)=O)C(=O)NCC(=O)N[C@@H](CCC(=O)O)C(=O)N[C@@H](CO)C(=O)N[C@@H](CC(N)=O)C(=O)N[C@@H](CCC(N)=O)C(=O)N[C@@H](CCC(=O)O)C(=O)N[C@@H](CCCNC(=N)N)C(=O)NCC(=O)N[C@@H](C)C(N)=O)[C@@H](C)CC)C(C)C)[C@@H](C)O [hpGRF(1-40)NH2, reference compound] | – | 1 |
| CC[C@H](C)[C@H](NC(=O)[C@H](C)NC(=O)[C@H](CC(=O)O)NC(=O)[C@H](C)NC(=O)[C@@H](N)Cc1c[nH]cn1)C(=O)N[C@@H](Cc1ccccc1)C(=O)N[C@H](C(=O)N[C@@H](CO)C(=O)N[C@@H](CO)C(=O)N[C@@H](Cc1ccc(O)cc1)C(=O)N[C@@H](CCCNC(=N)N)C(=O)N[C@@H](CCCNC(=N)N)C(=O)N[C@H](C(=O)N[C@@H](CC(C)C)C(=O)NCC(=O)N[C@@H](CCC(N)=O)C(=O)N[C@@H](CC(C)C)C(=O)N[C@@H](Cc1ccc(O)cc1)C(=O)N[C@@H](C)C(=O)N[C@@H](CCCNC(=N)N)C(=O)N[C@@H](CCCCN)C(=O)N[C@@H](CC(C)C)C(=O)N[C@@H](CC(C)C)C(=O)N[C@@H](Cc1c[nH]cn1)C(=O)N[C@@H](CCC(=O)O)C(=O)N[C@H](C(=O)N[C@@H](CCSC)C(=O)N[C@@H](CC(N)=O)C(=O)N[C@@H](CCCNC(=N)N)C(=O)N[C@@H](CCC(N)=O)C(=O)N[C@@H](CCC(N)=O)C(=O)NCC(=O)N[C@@H](CCC(=O)O)C(=O)N[C@@H](CCCNC(=N)N)C(=O)N[C@@H](CC(N)=O)C(=O)N[C@@H](CCC(N)=O)C(=O)N[C@@H](CCC(=O)O)C(=O)N[C@@H](CCC(N)=O)C(=O)N[C@@H](CCCNC(=N)N)C(=O)N[C@@H](CO)C(=O)N[C@@H](CCCNC(=N)N)C(=O)N[C@@H](Cc1ccccc1)C(=O)N[C@@H](CC(N)=O)C(=O)O)[C@@H](C)CC)[C@@H](C)CC)[C@@H](C)O [rhGRF(1-43)-OH] | – | 1 |
| YADAIFTNSYRKVLGQLSARKLLQDIISR-NH2 [[Ile^27]-hpGRF(1―29)-NH2] | more potent than [Ile^27]-hpGRF(1―29)-OH | – |
| YADAIFTNSYRKVLGQLSARKLLQDIISRQQG-NH2 [[IIe^27]-hpGRF(1―32)-NH2] | more potent than [IIe^27]-hpGRF(1―32)-OH | – |
| YADAIFTNSYRKVLGQLSARKLLQDIISRQQGESNQERGARARL-NH2 [[lle^27]-h^pGRF(1-44)-NH2] | equipotent with [Ile^27]-hpGRF(1―44)-OH | – |
| YADAIFTNSYRKVLGQLSARKLLQDIVSRQQGESNQERGA [[Val^27]-hpGRF(1―40)-OH] | equipotent | – |
| YADAIFTNSYRKVLGQLSARKLLQDIVSRQQGESNQERGARARL [[VaI^27]-hpGRF(1-44)-OH] | equipotent | – |
